These are yes or no findings as the source states them, for the method shown. Binding seen in cells or lysates may run through a third protein. Some entries that bind do so weakly or less than the wild type.
T1: Nab2 (S. cerevisiae (endogenous in yeast)), P32505
T1 chain: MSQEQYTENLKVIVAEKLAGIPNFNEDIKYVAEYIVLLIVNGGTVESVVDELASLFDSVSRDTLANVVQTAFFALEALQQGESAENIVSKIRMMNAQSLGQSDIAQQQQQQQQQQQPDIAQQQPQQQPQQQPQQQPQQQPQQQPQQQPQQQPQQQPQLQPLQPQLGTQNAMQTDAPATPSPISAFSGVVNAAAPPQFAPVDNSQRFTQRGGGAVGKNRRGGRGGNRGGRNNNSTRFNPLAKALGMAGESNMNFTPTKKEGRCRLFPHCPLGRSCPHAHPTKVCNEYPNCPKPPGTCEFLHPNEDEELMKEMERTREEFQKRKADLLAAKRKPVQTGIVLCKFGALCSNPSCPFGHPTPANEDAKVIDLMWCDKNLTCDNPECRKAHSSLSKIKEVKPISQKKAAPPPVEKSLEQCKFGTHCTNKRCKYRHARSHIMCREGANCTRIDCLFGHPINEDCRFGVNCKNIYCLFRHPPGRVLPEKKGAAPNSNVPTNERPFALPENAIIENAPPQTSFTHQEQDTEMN

T2: Cbp80 (S. cerevisiae (endogenous in yeast)) (UniProt P34160)
T2 sequence: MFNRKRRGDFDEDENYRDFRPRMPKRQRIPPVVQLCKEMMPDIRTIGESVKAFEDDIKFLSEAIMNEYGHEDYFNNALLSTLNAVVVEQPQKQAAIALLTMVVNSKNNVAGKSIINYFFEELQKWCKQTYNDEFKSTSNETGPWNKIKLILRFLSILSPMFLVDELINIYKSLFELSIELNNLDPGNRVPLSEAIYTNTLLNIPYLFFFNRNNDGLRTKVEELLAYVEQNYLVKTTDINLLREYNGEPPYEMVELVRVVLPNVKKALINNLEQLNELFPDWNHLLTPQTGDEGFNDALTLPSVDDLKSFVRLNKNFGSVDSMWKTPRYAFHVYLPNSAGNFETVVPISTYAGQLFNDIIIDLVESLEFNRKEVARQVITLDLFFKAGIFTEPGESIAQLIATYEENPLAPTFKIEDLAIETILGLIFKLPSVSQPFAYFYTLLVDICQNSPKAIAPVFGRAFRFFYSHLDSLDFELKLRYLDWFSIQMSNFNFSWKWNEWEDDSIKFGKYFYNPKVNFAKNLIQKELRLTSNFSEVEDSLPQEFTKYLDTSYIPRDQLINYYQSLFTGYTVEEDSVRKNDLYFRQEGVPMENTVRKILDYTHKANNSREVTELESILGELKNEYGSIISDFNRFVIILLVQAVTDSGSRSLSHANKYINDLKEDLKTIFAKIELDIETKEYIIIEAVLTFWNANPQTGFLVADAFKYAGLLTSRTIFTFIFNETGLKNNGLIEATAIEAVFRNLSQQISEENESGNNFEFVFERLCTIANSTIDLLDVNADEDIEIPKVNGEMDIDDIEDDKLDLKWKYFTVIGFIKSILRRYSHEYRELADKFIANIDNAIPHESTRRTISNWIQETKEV

B1: Nab2, P32505 1-525 (protein)
chain: MSQEQYTENLKVIVAEKLAGIPNFNEDIKYVAEYIVLLIVNGGTVESVVDELASLFDSVSRDTLANVVQTAFFALEALQQGESAENIVSKIRMMNAQSLGQSDIAQQQQQQQQQQQPDIAQQQPQQQPQQQPQQQPQQQPQQQPQQQPQQQPQQQPQLQPLQPQLGTQNAMQTDAPATPSPISAFSGVVNAAAPPQFAPVDNSQRFTQRGGGAVGKNRRGGRGGNRGGRNNNSTRFNPLAKALGMAGESNMNFTPTKKEGRCRLFPHCPLGRSCPHAHPTKVCNEYPNCPKPPGTCEFLHPNEDEELMKEMERTREEFQKRKADLLAAKRKPVQTGIVLCKFGALCSNPSCPFGHPTPANEDAKVIDLMWCDKNLTCDNPECRKAHSSLSKIKEVKPISQKKAAPPPVEKSLEQCKFGTHCTNKRCKYRHARSHIMCREGANCTRIDCLFGHPINEDCRFGVNCKNIYCLFRHPPGRVLPEKKGAAPNSNVPTNERPFALPENAIIENAPPQTSFTHQEQDTEMN
B2: Cbp20 (protein, UniProt Q08920 1-208)
chain: MSLEEFDEVKYDHSTKRLDTPSRYLLRKARRNPNGLQELRESMKSSTIYVGNLSFYTSEEQIYELFSKCGTIKRIIMGLDRFKFTPCGFCFIIYSCPDEALNALKYLSDTKLDEKTITIDLDPGFEDGRQFGRGKSGGQVSDELRFDFDASRGGFAIPFAERVGVPHSRFDNSSSQSNTNNYIPPPDAMGTFRPGFDEEREDDNYVPQ

What was measured:
[1] = molecular target: T1, Nab2 (S. cerevisiae (endogenous in …)); assay: cross-linking; BS^3 cross-linking mass spectrometry (XL-MS) of the diluted native mRNP preparation; LysC and trypsin digestion, 1% FDR; details: remark: other sources report otherwise
[2] = molecular target: T2, Cbp80 (S. cerevisiae (endogenous in yeast)); assay: as above

Binder	binding [1]	binding [2]
B1	binds	–
B2	–	binds
